Experimental data: PubChem BioAssay AID1224828 (NIAID, 2016)
Here is one part, drawn at random, of about 17,000 reagents tested. 762 of all reagents (4.5%) were called active. 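Active calls include both raised and lowered p65 entry, mostly lowered; wells with fewer than 50 cells lack a z-score.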 Raw values are not corrected between plates.

- Test: 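Knock-downs that increase or decrease LPS-induced p65 nuclear translocation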 (primary screen)
- Cells: mouse RAW264.7 G9 macrophage reporter cells (GFP-p65, Tnf promoter-mCherry)
- Knock-down reagent: siRNA pool against mouse genes, 100 nM
- Duration: 2 days siRNA transfection, then 40 min LPS before fixation
- Challenge: LPS (Salmonella minnesota R595) at 10 ng/ml
- Measurement: 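Imaged p65 nuclear translocation ratio, normalised to the plate median, converted to robust z-scores and averaged across two replicates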
- Direction: p65 translocation robust z-score: higher = more nuclear NF-kappaB p65 after LPS than the plate median; nuclear/cytoplasmic p65 ratio: higher = more nuclear NF-kappaB p65
- Call rule: 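Called active when z exceeds 3.3 or falls under -1.56 (median of Tlr4 controls), giving activity score of at least 50; no calls for control wells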
- Meaning of the calls: active = hit (p65 shift raised or lowered); inactive = no clear change

no.	target	p65 translocation robust z-score	nuclear/cytoplasmic p65 ratio, rep 1	nuclear/cytoplasmic p65 ratio, rep 2	low cell count flag	Call
1	Fbxo11	-0.32	1.31	1.32	enough cells to score	inactive
2	Nub1	0.03	1.4	1.43	enough cells to score	inactive
3	Exoc7	-2.13	1.26	1.06	enough cells to score	active
4	Or10p1	-0.83	1.33	1.21	enough cells to score	inactive
5	Kpna3	-0.37	1.47	1.29	enough cells to score	inactive
6	Tigar	-2.37	1.15	1.17	enough cells to score	active
7	Slc36a3		1.49	1.18	fewer than 50 cells per well; well left out of scoring	inactive
8	Gpr25	-1.03	1.3	1.49	enough cells to score	inactive
9	Syce2	-1.18	1.34	1.16	enough cells to score	inactive
10	Ddx55	0.67	1.44	1.87	enough cells to score	inactive
11	Sqstm1		1.61	1.56	fewer than 50 cells per well; well left out of scoring	inactive
12	BC005624	0.64	1.64	1.99	enough cells to score	inactive
13	Fstl1	-1.28	1.29	1.18	enough cells to score	inactive
14	Tmem80	0.07	1.35	1.49	enough cells to score	inactive
15	Camk2a	-1.07	1.47	1.29	enough cells to score	inactive
16	D630039A03Rik	-1.8	1.22	1.38	enough cells to score	active
17	Robo1	0.42	1.53	1.62	enough cells to score	inactive
18	Pja2	1.1	1.6	1.27	enough cells to score	inactive
19	Dqx1	1.42	1.62	1.57	enough cells to score	inactive
20	Angptl3	0	1.61	1.63	enough cells to score	inactive
21	Ankra2	1.5	1.82	1.93	enough cells to score	inactive
22	Med25	0.43	1.48	1.49	enough cells to score	inactive
23	Or3a10	-1.14	1.37	1.4	enough cells to score	inactive
24	Gsx1	-1.38	1.44	1.34	enough cells to score	inactive
25	Rora	-2.5	1.15	1.18	enough cells to score	active

Continued; the last 5 above are carried over.
no.	target	p65 translocation robust z-score	nuclear/cytoplasmic p65 ratio, rep 1	nuclear/cytoplasmic p65 ratio, rep 2	low cell count flag	Call
21	Ankra2	1.5	1.82	1.93	enough cells to score	inactive
22	Med25	0.43	1.48	1.49	enough cells to score	inactive
23	Or3a10	-1.14	1.37	1.4	enough cells to score	inactive
24	Gsx1	-1.38	1.44	1.34	enough cells to score	inactive
25	Rora	-2.5	1.15	1.18	enough cells to score	active
26	Adam15	-0.78	1.48	1.52	enough cells to score	inactive
27	Rnf181	0.74	1.5	1.48	enough cells to score	inactive
28	Serpinb10	1.94	1.59	1.54	enough cells to score	inactive
29	Nek3	2.44	1.82	1.68	enough cells to score	inactive
30	Ncam2	0.41	1.48	1.41	enough cells to score	inactive
31	Ubac1		1.36	1.25	fewer than 50 cells per well; well left out of scoring	inactive
32	Or5p81	1.25	1.67	1.37	enough cells to score	inactive
33	Ctdspl	-1.38	1.34	1.59	enough cells to score	inactive
34	Cela3b	-0.41	1.27	1.32	enough cells to score	inactive
35	Pigyl	-1.03	1.27	1.28	enough cells to score	inactive
36	Ube2z	0.23	1.52	1.37	enough cells to score	inactive
37	Dhx9	2.83	1.86	1.71	enough cells to score	inactive
38	Abca7	-1.08	1.42	1.54	enough cells to score	inactive
39	Prox2	0.07	1.4	1.67	enough cells to score	inactive
40	A730027B03Rik (retired record)	-0.56	1.16	1.45	enough cells to score	inactive
41	Zfp84	0.9	1.59	1.3	enough cells to score	inactive
42	Cd300e	-0.7	1.52	1.5	enough cells to score	inactive
43	Dse	-0.69	1.14	1.14	enough cells to score	inactive
44	Dusp7	-0.6	1.59	1.31	enough cells to score	inactive
45	Carnmt1	0.6	1.54	1.48	enough cells to score	inactive
46	Lgals7	0.89	1.87	1.66	enough cells to score	inactive
47	Il1a	0.65	1.54	1.49	enough cells to score	inactive
48	C6	0.5	1.69	1.69	enough cells to score	inactive
49	Hamp	0.27	1.73	1.54	enough cells to score	inactive
50	Cers6	0.97	1.67	1.58	enough cells to score	inactive
51	Ccr5	-0.16	1.5	1.54	enough cells to score	inactive
52	Mrps14	0.93	1.9	1.76	enough cells to score	inactive
53	Gpaa1	1.48	1.34	1.58	enough cells to score	inactive
54	Zfp354b	-0.12	1.47	1.18	enough cells to score	inactive
55	Tmem254	0.71	1.58	2.01	enough cells to score	inactive
56	Ophn1	1.32	1.57	1.64	enough cells to score	inactive
57	Btg4	0.58	1.79	1.62	enough cells to score	inactive
58	Or5b95	0.34	1.61	1.51	enough cells to score	inactive
59	Fzd1	1.18	1.68	1.74	enough cells to score	inactive
60	Spock1	-0.53	1.36	1.16	enough cells to score	inactive
61	Ric8a	-0.95	1.49	1.51	enough cells to score	inactive
62	Msc	-0.14	1.4	1.35	enough cells to score	inactive
63	Ap1s1	0.15	1.56	1.78	enough cells to score	inactive
64	Arl2	-0.21	1.67	1.5	enough cells to score	inactive
65	Pxt1	-0.49	1.28	1.41	enough cells to score	inactive
66	Zfp85os		1.25	1.54	fewer than 50 cells per well; well left out of scoring	inactive
67	Ube2q1	-0.81	1.46	1.52	enough cells to score	inactive
68	Ccdc87		1.3	1.28	fewer than 50 cells per well; well left out of scoring	inactive
69	Irag1	-0.45	1.33	1.33	enough cells to score	inactive
70	Pknox1	-0.83	1.37	1.31	enough cells to score	inactive
71	Tmem150c		1.27	1.32	fewer than 50 cells per well; well left out of scoring	inactive
72	Irf9	-0.43	1.39	1.35	enough cells to score	inactive
73	Apod	0.33	1.68	1.66	enough cells to score	inactive
74	Spire1	-0.24	1.33	1.25	enough cells to score	inactive
75	Alox15	0.64	1.72	1.76	enough cells to score	inactive
